# According to article PMC12490858:
# These are yes or no findings as the source states them, for the method shown. Some binding calls cover weakened binding; strength is not graded here.
# B1: CCCTC-binding factor (CTCF) (protein, UniProt Q61164 1-736)
# chain: MEGEAVEAIVEESETFIKGKERKTYQRRREGGQEEDACHLPQNQTDGGEVVQDVNSSVQMVMMEQLDPTLLQMKTEVMEGTVAPEAEAAVDDTQIITLQVVNMEEQPINIGELQLVQVPVPVTVPVATTSVEELQGAYENEVSKEGLAESEPMICHTLPLPEGFQVVKVGANGEVETLEQGELPPQEDSSWQKDPDYQPPAKKTKKTKKSKLRYTEEGKDVDVSVYDFEEEQQEGLLSEVNAEKVVGNMKPPKPTKIKKKGVKKTFQCELCSYTCPRRSNLDRHMKSHTDERPHKCHLCGRAFRTVTLLRNHLNTHTGTRPHKCPDCDMAFVTSGELVRHRRYKHTHEKPFKCSMCDYASVEVSKLKRHIRSHTGERPFQCSLCSYASRDTYKLKRHMRTHSGEKPYECYICHARFTQSGTMKMHILQKHTENVAKFHCPHCDTVIARKSDLGVHLRKQHSYIEQGKKCRYCDAVFHERYALIQHQKSHKNEKRFKCDQCDYACRQERHMIMHKRTHTGEKPYACSHCDKTFRQKQLLDMHFKRYHDPNFVPAAFVCSKCGKTFTRRNTMARHADNCAGPDGVEGENGGETKKSKRGRKRKMRSKKEDSSDSEENAEPDLDDNEEEEEPAVEIEPEPEPQPQPPPPPQPVAPAPPPAKKRRGRPPGRTNQPKQNQPTAIIQVEDQNTGAIENIIVEVKKEPDAEPAEGEEEEAQAATTDAPNGDLTPEMILSMMDR
# B2: SATB1 (protein, UniProt Q60611 1-764)
# chain: MDHLNEATQGKEHSEMSNNVSDPKGPPAKIARLEQNGSPLGRGRLGSTGGKMQGVPLKHSGHLMKTNLRKGTMLPVFCVVEHYENAIEYDCKEEHAEFVLVRKDMLFNQLIEMALLSLGYSHSSAAQAKGLIQVGKWNPVPLSYVTDAPDATVADMLQDVYHVVTLKIQLHSCPKLEDLPPEQWSHTTVRNALKDLLKDMNQSSLAKECPLSQSMISSIVNSTYYANVSAAKCQEFGRWYKHFKKTKDMMVEMDSLSELSQQGANHVNFGQQPVPGNTAEQPPSPAQLSHGSQPSVRTPLPNLHPGLVSTPISPQLVNQQLVMAQLLNQQYAVNRLLAQQSLNQQYLNHPPPVSRSMNKPLEQQVSTNTEVSSEIYQWVRDELKRAGISQAVFARVAFNRTQGLLSEILRKEEDPKTASQSLLVNLRAMQNFLQLPEAERDRIYQDERERSLNAASAMGPAPLLSTPPSRPPQVKTATLATERNGKPENNTMNINASIYDEIQQEMKRAKVSQALFAKVAATKSQGWLCELLRWKEDPSPENRTLWENLSMIRRFLSLPQPERDAIYEQESNAVHHHGDRPPHIIHVPAEQIQQQQQQQQQQQQQQQPPPPPPQPQPQPQAGPRLPPRQPTVASSAESDEENRQKTRPRTKISVEALGILQSFIQDVGLYPDEEAIQTLSAQLDLPKYTIIKFFQNQRYYLKHHGKLKDNSGLEVDVAEYKDEELLKDLEESVQDKNANTLFSVKLEEELSVEGSTDVNADLKD
# Target: T1, RAD21 (a cohesin complex component) (mouse (endogenous in thymocytes)) (UniProt Q61550)
# T1 sequence: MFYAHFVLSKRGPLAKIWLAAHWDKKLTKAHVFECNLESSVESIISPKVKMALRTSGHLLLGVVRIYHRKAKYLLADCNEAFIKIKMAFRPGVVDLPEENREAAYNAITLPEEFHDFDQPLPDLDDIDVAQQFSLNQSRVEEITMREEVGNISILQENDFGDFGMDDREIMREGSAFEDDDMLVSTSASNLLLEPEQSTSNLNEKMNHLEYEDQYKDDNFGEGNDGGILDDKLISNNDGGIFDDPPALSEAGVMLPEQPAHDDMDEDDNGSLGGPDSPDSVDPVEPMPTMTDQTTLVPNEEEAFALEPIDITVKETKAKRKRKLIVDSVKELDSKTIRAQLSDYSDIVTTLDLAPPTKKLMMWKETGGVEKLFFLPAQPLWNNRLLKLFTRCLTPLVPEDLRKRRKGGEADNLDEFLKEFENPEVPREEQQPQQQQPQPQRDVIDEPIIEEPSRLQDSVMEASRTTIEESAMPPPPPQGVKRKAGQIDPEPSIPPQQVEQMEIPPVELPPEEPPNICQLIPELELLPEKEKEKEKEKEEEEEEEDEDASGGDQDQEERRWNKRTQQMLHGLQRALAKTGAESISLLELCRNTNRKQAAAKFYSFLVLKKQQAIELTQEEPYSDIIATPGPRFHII
# Experiment: urea ChIP-Western; formaldehyde-crosslinked thymocyte chromatin purified by 8 M urea ultracentrifugation and sonicated (~10 ug chromatin-DNA); immunoprecipitated with the indicated antibody on Protein-A beads, washed 6 times, reverse-crosslinked at 65 C; released proteins detected by western blot
row,Binder,binding
1,B1,binds weakly
2,B2,no binding
